Paper PMC8231826
No constants are given. Whether binding was seen depends on the method and setting. A result given as binding can be weak or reduced; the word gives no strength.

Molecular target: T1, KYGRGDS peptide (on a column)
T1 sequence (peptide): KYGRGDS
Test: affinity chromatography on a peptide column; integrin from human platelets in Triton X-100 on an immobilised KYGRGDS column; addition and removal of 2 mM MnCl2; both purified

binding: binds
Substance: Integrin α IIb β 3 (human (endogenous in platelets)) (complex)
